The target in this test is T1, mesoderm-specific transcript (MEST) (UniProt Q5EB52).
T1 sequence: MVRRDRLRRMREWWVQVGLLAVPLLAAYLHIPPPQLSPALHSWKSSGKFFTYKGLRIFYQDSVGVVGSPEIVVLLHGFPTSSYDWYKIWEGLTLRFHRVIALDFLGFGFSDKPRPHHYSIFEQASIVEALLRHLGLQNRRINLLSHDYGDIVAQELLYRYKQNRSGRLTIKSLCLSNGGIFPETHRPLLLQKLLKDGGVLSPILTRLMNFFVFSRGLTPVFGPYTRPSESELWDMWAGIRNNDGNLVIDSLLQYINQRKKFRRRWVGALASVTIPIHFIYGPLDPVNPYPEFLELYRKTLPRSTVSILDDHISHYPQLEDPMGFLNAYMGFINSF
Description: affinity purification with mass spectrometry; immunoprecipitation coupled with liquid chromatography tandem mass spectrometry (IP-MS) to identify the interacting partners of MEST.

No constants are given. Whether binding was seen depends on the method and setting. Binding seen in cells or lysates may run through a third protein. A yes stands for co-enrichment or nearness to the bait. Other partners may have been found.

Experimental findings from paper PMC10192437 are described below.

B1: purine rich element binding protein A (PURA) (protein, UniProt Q00577 1-322)
chain: MADRDSGSEQGGAALGSGGSLGHPGSGSGSGGGGGGGGGGGGSGGGGGGAPGGLQHETQELASKRVDIQNKRFYLDVKQNAKGRFLKIAEVGAGGNKSRLTLSMSVAVEFRDYLGDFIEHYAQLGPSQPPDLAQAQDEPRRALKSEFLVRENRKYYMDLKENQRGRFLRIRQTVNRGPGLGSTQGQTIALPAQGLIEFRDALAKLIDDYGVEEEPAELPEGTSLTVDNKRFFFDVGSNKYGVFMRVSEVKPTYRNSITVPYKVWAKFGHTFCKYSEEMKKIQEKQREKRAACEQLHQQQQQQQEETAAATLLLQGEEEGEED
Consider B1, for which the binding entry was “binds”.
